# Measurements taken from patent US9233107B2, “Compositions and methods for the treatment of progressive multifocal leukoencephalopathy (PML)” (Biogen MA Inc., priority 2007, dated 2016).
# Test system: SVG-A cells
# Assay: Total cell number (DAPI+ events) / cytotoxicity in the JCV infectivity assay
# Conditions: Homo sapiens, read-out: % Inhibition total Cell Number @10 uM
# Experimental: SV40 transformed glial cells were seeded in 10% FBS media. The cells were seeded at 2000 cells per well in 75 μl of media per well. On day 2, the media was removed and replaced by 35 μl of a 1× concentrated drug aliquot combined with a 100× diluted JCV Turbo aliquot in 35 μl of 2% FBS media (JCV Turbo is a hybrid Mad-1/SVEΔ virus constructed by insertion of the regulatory region of SV40 into the regulatory region of the Mad-1 strain of JCV (Mad-1/SVE), Vacante et al., Virology 1989, 170: 353-361). The cells were incubated for an hour, after which another 65 uL aliquot of 1× concentrated drug in 2% FBS was added. […] The information is tabulated as % inhibition (as measured by the number and percentage of JCV positive cells).
# JCV Infectivity Assay: SVG-A cells were seeded at 2,000 cells/well/0.075 ml of culture media in 96 flat-bottom well plate (Corning, N.Y.). […] Following a wash step with 1×PBS, primary antibody was detected with an Alexa-Fluor 488-labeled goat anti-mouse secondary antibody at 1:100 dilution in 1×PBS, cells were counterstained with DAPI at 1 μg/ml (0.05 ml/well) for 30 minutes at 37° C. […] Field images of each well were acquired and analyzed using the Cellomics ArrayScan (Thermo Scientific Inc, Waltham, Mass.) using the Target Activation software. […]
compound,measurement,value
Nc1nc2ccc(OC(F)(F)F)cc2s1 [RILUZOLE],inhibition at 10 µM,-12%
